Measured values as given in patent publication US20120288507A1.
Results are given in words; binding and its absence hold for the method and conditions named. Some binding calls cover weakened binding; strength is not graded here.

By UniProt entry, the sequences of proteins in these tests, tags left out. Where a name states a change or a piece, a line headed by the entry shows the natural chain unless it says otherwise. Residues count along the entry.
UniProt O88572, residues 20-1370: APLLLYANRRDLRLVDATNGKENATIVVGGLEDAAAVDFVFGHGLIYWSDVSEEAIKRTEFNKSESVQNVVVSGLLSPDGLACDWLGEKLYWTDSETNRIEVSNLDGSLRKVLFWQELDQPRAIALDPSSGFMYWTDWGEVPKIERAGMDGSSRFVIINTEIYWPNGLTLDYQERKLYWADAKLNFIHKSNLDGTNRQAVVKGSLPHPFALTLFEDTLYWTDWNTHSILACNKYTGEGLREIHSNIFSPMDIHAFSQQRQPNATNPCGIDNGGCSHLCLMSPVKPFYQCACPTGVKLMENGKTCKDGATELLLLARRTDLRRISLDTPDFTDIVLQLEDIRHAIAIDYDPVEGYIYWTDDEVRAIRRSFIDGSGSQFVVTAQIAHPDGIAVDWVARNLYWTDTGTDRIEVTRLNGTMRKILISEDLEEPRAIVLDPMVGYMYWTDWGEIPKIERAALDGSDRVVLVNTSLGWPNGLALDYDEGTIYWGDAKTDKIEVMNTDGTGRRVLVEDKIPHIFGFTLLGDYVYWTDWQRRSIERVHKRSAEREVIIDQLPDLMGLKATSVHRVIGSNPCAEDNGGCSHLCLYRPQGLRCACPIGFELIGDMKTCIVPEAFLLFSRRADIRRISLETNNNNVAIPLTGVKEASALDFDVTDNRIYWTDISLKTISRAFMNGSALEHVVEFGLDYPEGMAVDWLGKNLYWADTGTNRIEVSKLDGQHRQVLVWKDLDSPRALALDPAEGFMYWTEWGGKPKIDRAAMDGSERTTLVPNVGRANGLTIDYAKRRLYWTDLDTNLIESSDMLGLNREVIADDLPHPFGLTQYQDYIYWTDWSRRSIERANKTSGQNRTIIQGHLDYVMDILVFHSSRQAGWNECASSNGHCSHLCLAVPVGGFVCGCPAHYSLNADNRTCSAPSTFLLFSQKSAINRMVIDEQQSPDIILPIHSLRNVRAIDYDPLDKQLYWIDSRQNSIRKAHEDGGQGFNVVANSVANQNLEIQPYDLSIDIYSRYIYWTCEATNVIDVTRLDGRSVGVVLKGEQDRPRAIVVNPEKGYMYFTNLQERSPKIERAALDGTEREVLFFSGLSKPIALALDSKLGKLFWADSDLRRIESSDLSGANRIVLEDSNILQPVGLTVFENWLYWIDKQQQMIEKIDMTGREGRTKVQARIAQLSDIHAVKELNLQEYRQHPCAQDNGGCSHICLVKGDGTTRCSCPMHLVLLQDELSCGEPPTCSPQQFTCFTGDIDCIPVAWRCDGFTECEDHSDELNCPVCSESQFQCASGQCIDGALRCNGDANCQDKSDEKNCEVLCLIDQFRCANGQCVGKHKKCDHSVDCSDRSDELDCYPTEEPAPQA
UniProt Q6X4U4: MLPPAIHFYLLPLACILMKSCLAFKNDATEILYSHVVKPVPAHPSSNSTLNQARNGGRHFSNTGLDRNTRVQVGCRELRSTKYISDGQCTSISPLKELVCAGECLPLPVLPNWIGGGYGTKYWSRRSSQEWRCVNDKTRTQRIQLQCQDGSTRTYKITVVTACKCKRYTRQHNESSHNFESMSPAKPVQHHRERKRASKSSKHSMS

Molecular target: rmLRP6-His6 (R&D Systems) (mouse (printed as rm)) (UniProt O88572)
Test: AlphaScreen, biotinylated huWise and rmLRP6-His6

binding: binds
Substance: biotinylated recombinant human WISE (from UniProt Q6X4U4 24-206) (ligand)
